From ChEMBL document CHEMBL3988442, “University of Dundee, Small-Polar-MMV Screening Library” (2021).

The chains behind the UniProt entries cited, without tags or fusion partners. Residues count along the entry.
UniProt I6X8D2, whole entry: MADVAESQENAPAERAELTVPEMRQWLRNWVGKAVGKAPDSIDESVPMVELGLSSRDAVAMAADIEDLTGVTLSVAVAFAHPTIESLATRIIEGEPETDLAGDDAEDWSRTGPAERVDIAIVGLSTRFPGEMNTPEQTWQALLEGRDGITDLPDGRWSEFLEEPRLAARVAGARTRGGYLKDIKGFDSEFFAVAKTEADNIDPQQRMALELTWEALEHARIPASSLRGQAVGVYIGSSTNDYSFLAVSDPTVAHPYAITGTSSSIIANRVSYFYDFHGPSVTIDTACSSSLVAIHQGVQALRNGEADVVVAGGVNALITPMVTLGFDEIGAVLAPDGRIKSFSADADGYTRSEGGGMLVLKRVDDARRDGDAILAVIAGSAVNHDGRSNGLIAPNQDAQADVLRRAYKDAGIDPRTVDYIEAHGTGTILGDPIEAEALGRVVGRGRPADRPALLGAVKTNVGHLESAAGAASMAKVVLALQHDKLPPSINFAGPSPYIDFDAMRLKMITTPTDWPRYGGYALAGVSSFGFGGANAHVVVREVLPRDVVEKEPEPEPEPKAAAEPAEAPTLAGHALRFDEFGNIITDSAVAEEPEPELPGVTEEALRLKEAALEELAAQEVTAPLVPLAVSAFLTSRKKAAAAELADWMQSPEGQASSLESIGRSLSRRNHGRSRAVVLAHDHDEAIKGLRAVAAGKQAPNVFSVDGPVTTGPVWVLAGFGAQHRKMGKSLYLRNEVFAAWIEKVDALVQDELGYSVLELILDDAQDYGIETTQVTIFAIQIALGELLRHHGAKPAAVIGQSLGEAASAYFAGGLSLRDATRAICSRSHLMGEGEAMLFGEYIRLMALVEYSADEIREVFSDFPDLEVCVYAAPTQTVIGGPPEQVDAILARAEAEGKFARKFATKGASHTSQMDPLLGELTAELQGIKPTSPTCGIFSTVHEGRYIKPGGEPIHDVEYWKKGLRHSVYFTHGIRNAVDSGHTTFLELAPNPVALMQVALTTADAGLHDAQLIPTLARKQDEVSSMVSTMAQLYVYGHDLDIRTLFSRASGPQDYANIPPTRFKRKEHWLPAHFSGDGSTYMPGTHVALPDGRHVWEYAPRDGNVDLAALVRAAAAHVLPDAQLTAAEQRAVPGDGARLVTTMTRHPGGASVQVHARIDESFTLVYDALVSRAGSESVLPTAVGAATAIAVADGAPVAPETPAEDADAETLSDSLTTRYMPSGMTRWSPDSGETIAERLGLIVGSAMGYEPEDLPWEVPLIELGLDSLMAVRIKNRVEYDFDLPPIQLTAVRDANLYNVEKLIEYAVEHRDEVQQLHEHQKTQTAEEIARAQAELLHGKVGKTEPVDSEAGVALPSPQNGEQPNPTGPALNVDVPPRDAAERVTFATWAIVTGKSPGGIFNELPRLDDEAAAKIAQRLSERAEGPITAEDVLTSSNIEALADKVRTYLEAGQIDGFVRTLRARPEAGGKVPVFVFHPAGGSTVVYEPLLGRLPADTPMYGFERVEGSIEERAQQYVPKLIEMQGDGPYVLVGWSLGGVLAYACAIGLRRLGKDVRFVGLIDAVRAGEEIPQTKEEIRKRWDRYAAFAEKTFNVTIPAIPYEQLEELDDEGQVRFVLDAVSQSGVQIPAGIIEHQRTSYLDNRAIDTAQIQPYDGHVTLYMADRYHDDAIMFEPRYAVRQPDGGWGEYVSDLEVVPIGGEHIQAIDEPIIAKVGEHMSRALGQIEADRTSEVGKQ
UniProt A4I591, 1-473: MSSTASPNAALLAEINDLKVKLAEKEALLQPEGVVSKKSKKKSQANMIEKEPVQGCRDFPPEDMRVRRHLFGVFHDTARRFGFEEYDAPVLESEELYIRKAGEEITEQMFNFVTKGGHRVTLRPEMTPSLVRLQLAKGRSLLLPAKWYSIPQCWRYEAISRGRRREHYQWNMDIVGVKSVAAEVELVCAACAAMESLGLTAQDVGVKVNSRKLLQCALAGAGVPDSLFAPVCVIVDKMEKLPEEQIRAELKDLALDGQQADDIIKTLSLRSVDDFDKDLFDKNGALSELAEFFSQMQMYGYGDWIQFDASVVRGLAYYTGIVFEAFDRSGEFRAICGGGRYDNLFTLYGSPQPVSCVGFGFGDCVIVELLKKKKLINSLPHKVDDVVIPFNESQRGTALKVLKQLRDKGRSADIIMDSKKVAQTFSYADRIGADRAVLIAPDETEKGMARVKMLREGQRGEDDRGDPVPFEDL

Results are given as percent effect.
How 0% and 100% were set is not recorded. Most values in the screen are low, and negative values occur.
This is an unselected part of the compounds tested.
Two or more numbers in one place are separate tests of the same structure; such repeats can differ widely.
A dash means the value is not listed here; it may have been measured.

Leishmania in macrophages: 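Cell assay of Leishmania donovani living inside macrophages; the read-out is not stated. Concentration: 30 µM. Direction is inferred from retests: higher values go with stronger inhibition. About 69,000 compounds were tested under these conditions; 1.5% (about 1,000) showed 50% or more at least once.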
Pks13 thioesterase: 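Polyketide synthase Pks13, Mycobacterium tuberculosis (UniProt I6X8D2). Enzyme assay of the thioesterase domain of polyketide synthase 13; the read-out is not stated. Compounds at 30 µM. The record gives no direction; the compounds picked for IC50 retests had high values, so higher reads as stronger inhibition. Size under these conditions: about 67,000 compounds, about 300 of them at 50% or above in at least one test.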
LiHisRS: 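Histidine-tRNA ligase, Leishmania infantum (UniProt A4I591). Enzyme assay of histidyl-tRNA synthetase; the read-out is not stated. Concentration: 30 µM. The record gives no direction; compounds that gave an IC50 in retests scored well above the rest, so higher reads as stronger inhibition. The assay is labelled LdHisRS but filed under L. infantum. Of about 69,000 compounds tested this way, about 410 (0.6%) reached 50% or more in at least one test.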

structure | Leishmania in macrophages | Pks13 thioesterase | LiHisRS
CCc1nc(C)c(CC(=O)N2CCC3(CC2)OCCCC3O)c(=O)[nH]1 (stereo not given) | 23.15% | -3.709% | -1.667%
CCc1nnsc1C(=O)N(C)Cc1ccc(Br)o1 | 16.8% | -26.51% | 20.51%
COc1cc(N2CCC3(CCN(Cc4cccnc4)C3=O)C2)ncn1 (stereo not given) | 41.18% | -2.63% | 6.306%
O=C(O)C(F)(F)F.O=C(O)C(F)(F)F.[H][C@]12CCC[C@@]1(COc1cccnc1)CN(CC1CCOCC1)C2 | 32.48% | - | -
CCC(C)(C)NC(=O)Cn1nnc(CN(C)C(=O)c2ccccc2)n1 | 19.5% | -32.57% | 16.46%
CCc1nnc2sc(-c3cc(C(C)C)n[nH]3)nn12 | 15.86% | 3.772% | 17.39%
CC(NCc1nnc2n1CCCC2)C(=O)N1CCc2sccc2C1 (stereo not given) | 5.708% | -9.62% | 18.8%
CCC(C)NC(=O)CS(=O)(=O)Cc1ccccc1Cl (stereo not given) | 18.07% | -33.77% | 16.67%
CCNC(=O)N1CCC(n2ccc(C(F)(F)F)n2)CC1 | -12.93% | 3.734% | 27.16%
O=C1CC2(CCN(c3nccc(-c4cc(C(=O)O)ccn4)n3)CC2)CN1 | -14.6% | -10.42% | 20.83%
CN1CCN(Cc2cn3c(n2)CN(C(=O)N2CCOCC2)CC3)CC1 | - | -8.59% | 14.15%
Cc1ccc(CC(=O)N2CCCC(n3nc(C)cc3C)C2)cn1 (stereo not given) | 4.95% | - | -3.39%
Cc1nnc(SCC(=O)Nc2csc3nc(=O)c(C)nn23)s1 | 16.85% | -16.57% | -5.435%
CC(C)(C)C(=O)NCCC(=O)NC(C)(C)c1ccc2c(c1)OCO2 | 2.237% | -27.69% | 12.94%
CNC(=O)C1CC(=O)N(c2cccc(F)c2)C1 (stereo not given) | 14.79% | -19.36% | 1.075%
O=C(O)C(F)(F)F.[H][C@@]12COC[C@@H](C(=O)Nc3cnccn3)[C@]1([H])CN(C1CCC1)C2 | -10.65% | - | -
COc1ccc(-n2cccn2)c(CN2CCOCC(CN(C)C)C2)c1 (stereo not given) | -4.696% | -10.65% | 13.95%
COc1cccc(CNC(Cc2cccs2)c2nc(C)c(C)s2)c1OC.Cl (stereo not given) | 22.19% & 10.36% | - | -
CC(O)CN1CCC(CN(C)CC(=O)NC(C)C)CC1 (stereo not given) | 12.95% | -28.43% | 6.25%
OC1CCCN(Cc2ccc(F)c3cccnc23)C1 (stereo not given) | -14.35% | 1.875% | 13.98%
COc1c(Br)cc(Br)cc1CNC(C)Cn1cccn1 (stereo not given) | 10.58% | -9.905% | 10.96%
CC(=O)c1ccccc1C(=O)NCC1(CO)CC1 | 0.8224% | -10.81% | 11.54%
O=C1CC(c2ccc(O)cc2)c2c(c(C(=O)O)cn2-c2ccccc2)N1 (stereo not given) | 10.45% | 1.967% | 40.22%
NC(=O)C1(CCCc2ccccn2)CCCN(Cc2ncc[nH]2)C1 (stereo not given) | -8.686% & -12.6% | -2.23% | 6.186%
CN(Cc1cccc(C#N)c1)Cn1nc(C(C)(C)C)ccc1=O | 2.764% | - | 11.71%
Cc1ncc(C(=O)N2CCCCC2c2nc3cc(F)ccc3[nH]2)c(O)n1 (stereo not given) | -1.416% | -0.4214% | 13.58%
CCOc1ccc(Cl)c(C(=O)N2CCN(C(=O)c3ccoc3C)CC2)n1 | 18.75% | -5.587% | 16.44%
Cc1cnn(Cc2cc(F)ccc2F)c1NC(=O)C1COCCO1 (stereo not given) | 10.71% | -21.07% | 18.45%
Cn1cc(N2CC3(CCN(Cc4nccs4)CC3)OCC2=O)cn1 | - | -4.97% | 20.51%
Cc1cnc(N2C[C@@H]3CCN(CC4CC4)C(=O)[C@H]3C2)nc1 | - | -1.637% | 20%
COCCC(=O)N1CC[C@@H](N2CCN(C)CC2)[C@@H]1Cc1ccccc1 | 6.081% | -37.97% | 17.95%
Cc1cccc(CN2CCC3(CCCN(Cc4cnn(C)c4)C3)C2=O)n1 (stereo not given) | 22.48% | -18.09% | 13.89%
Cc1ncsc1-c1nc(-c2cccc(CN3CCOCC3)c2)no1 | 19.67% | -26.65% | 16.44%
O=C(C1CC(c2ccccc2)=NO1)N1CCCCc2ccccc21 (stereo not given) | 28.79% | -11.49% | 15.93%
[H][C@@]12CCN(C(=O)c3ccccn3)C[C@]1([H])OCCN(c1ccsc1)C2=O | 13.77% | - | -
CN(C)CCn1ccnc1C1CCCN(c2nccc3ccccc23)C1 (stereo not given) | -8.337% | -8.078% | 14.17%
[H][C@@]12CC[C@@](O)(c3ccc(C)cn3)[C@]1([H])CN(Cc1ccncc1)C2 | -17.28% & 3.57% | - | -
Cc1nc(CN2C[C@@H](CN3CCOCC3)[C@@H](CO)C2)c2ccccn12 | -8.953% | 5.749% | 17.74%
CC(C)CCN1CCc2cc(C(=O)N(C)C)c(NCC3CC3)nc2CC1 | - | -8.679% | 11.11%
Cc1nc(CN2CCCN(CC(=O)N(C)C(C)(C)C#N)CC2)no1 | 33.67% | - | 23.29%
CC(C)c1ncc(Cl)c(C(=O)N2CCN(C3CCCC3)CC2)n1 | 15.52% | -34.85% | 24.05%
Cc1cccnc1NCCNc1cc(C(C)C)nc2ccnn12 | 45.42% | -26.77% | 18.68%
COc1ccc(Br)cc1CN(C)c1nc2c(cnn2C)c(=O)[nH]1 | -4.149% | - | 11.4%
CC(O)CCN(C)C(=O)Nc1ccc(Br)cc1 (stereo not given) | -0.06572% | -19.85% | 18.75%
Cc1nc(CN(C)c2nc3c(cnn3C(C)(C)C)c(=O)[nH]2)cs1 | 9.709% | 2.987% | 1.754%
O=C(O)C(F)(F)F.[H][C@@]12CCN(CC3CC3)C[C@]1([H])[C@H](C(=O)NCc1ccco1)CCO2 | 24.94% | - | -

4 of the entries, repeated:

structure,Leishmania in macrophages,Pks13 thioesterase,LiHisRS
NC(=O)C1(CCCc2ccccn2)CCCN(Cc2ncc[nH]2)C1 (stereo not given),-8.686% & -12.6%,-2.23%,6.186%
Cc1cccc(CN2CCC3(CCCN(Cc4cnn(C)c4)C3)C2=O)n1 (stereo not given),22.48%,-18.09%,13.89%
O=C(O)C(F)(F)F.[H][C@@]12COC[C@@H](C(=O)Nc3cnccn3)[C@]1([H])CN(C1CCC1)C2,-10.65%,-,-
OC1CCCN(Cc2ccc(F)c3cccnc23)C1 (stereo not given),-14.35%,1.875%,13.98%